These are yes or no findings as the source states them, for the method shown. In cells and extracts the contact can be indirect. Some results given as binding are weak or reduced against the parent protein; the word gives no strength. Tags and fused reporters may be left off the sequences shown.

Protein sequences, listed by entry. Tags and fused reporters are not part of them. Lines headed by an entry give the natural chain unless they say otherwise; changes in a name come on top.
UniProt P55258: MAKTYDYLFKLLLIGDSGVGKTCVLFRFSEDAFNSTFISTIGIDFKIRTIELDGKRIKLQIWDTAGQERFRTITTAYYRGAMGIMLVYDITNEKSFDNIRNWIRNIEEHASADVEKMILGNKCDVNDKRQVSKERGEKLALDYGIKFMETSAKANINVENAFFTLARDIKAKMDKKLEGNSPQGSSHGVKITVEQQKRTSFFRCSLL

For 1 molecule, binding results are on record in article doi:10.1101/591974.

What all share (experiment): pull-down
The target in assay [1] is T1, GST-Hs-RAB3A-Q81L (human) (UniProt P20336).
T1 sequence: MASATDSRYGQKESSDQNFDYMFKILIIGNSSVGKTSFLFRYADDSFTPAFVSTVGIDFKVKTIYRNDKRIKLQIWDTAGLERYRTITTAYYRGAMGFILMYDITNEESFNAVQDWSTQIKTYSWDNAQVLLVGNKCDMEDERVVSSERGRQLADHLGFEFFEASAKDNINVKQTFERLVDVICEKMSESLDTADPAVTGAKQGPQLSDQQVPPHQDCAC

The target of assay [2] is GST-Mm-RAB8A-Q67L (mouse) (UniProt P55258).
A further assay addresses T2, GST-Rn-RAB27A-Q78L (Rn) (UniProt P23640).
T2 sequence: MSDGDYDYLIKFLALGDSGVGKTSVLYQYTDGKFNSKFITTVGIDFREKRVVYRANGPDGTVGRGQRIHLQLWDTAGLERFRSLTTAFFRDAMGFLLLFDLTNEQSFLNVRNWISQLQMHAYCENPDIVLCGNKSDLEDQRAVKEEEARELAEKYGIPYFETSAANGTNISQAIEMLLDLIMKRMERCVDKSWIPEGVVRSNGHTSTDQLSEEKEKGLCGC

B1: AcGFP1-tagged full-length Hs-SPIRE2 (protein, UniProt Q8WWL2 1-714)
chain: MARAGSCGGAAAGAGRPEPWELSLEEVLKAYEQPLNEEQAWAVCFQGCRGLRGSPGRRLRDTGDLLLRGDGSVGAREPEAAEPATMVVPLASSEAQTVQSLGFAIYRALDWGLDESEERELSPQLERLIDLMANNDSEDSGCGAADEGYGGPEEEEEAEGVPRSVRTFAQAMRLCAARLTDPRGAQAHYQAVCRALFVETLELRAFLARVREAKEMLQKLREDEPHLETPRAELDSLGHTDWARLWVQLMRELRRGVKLKKVQEQEFNPLPTEFQLTPFEMLMQDIRARNYKLRKVMVDGDIPPRVKKDAHELILDFIRSRPPLKQVSERRLRPLPPKQRSLHEKILEEIKQERRLRPVRGEGWAARGFGSLPCILNACSGDAKSTSCINLSVTDAGGSAQRPRPRVLLKAPTLAEMEEMNTSEEEESPCGEVTLKRDRSFSEHDLAQLRSEVASGLQSATHPPGGTEPPRPRAGSAHVWRPGSRDQGTCPASVSDPSHPLLSNRGSSGDRPEASMTPDAKHLWLEFSHPVESLALTVEEVMDVRRVLVKAEMEKFLQNKELFSSLKKGKICCCCRAKFPLFSWPPSCLFCKRAVCTSCSIKMKMPSKKFGHIPVYTLGFESPQRVSAAKTAPIQRRDIFQSLQGPQWQSVEEAFPHIYSHGCVLKDVCSECTSFVADVVRSSRKSVDVLNTTPRRSRQTQSLYIPNTRTLDFK
B1: the binding result in assay [1] is “binds weakly”; in assay [2], “binds”; in the assay with GST-Rn-RAB27A-Q78L (Rn) it was “binds weakly”.
